# Reference: PubChem BioAssay AID540275 (National Center for Advancing Translational Sciences (NCATS), 2011)
# The chains behind the UniProt entries cited, without tags or fusion partners.
# UniProt Q8NER1, whole entry, looked up: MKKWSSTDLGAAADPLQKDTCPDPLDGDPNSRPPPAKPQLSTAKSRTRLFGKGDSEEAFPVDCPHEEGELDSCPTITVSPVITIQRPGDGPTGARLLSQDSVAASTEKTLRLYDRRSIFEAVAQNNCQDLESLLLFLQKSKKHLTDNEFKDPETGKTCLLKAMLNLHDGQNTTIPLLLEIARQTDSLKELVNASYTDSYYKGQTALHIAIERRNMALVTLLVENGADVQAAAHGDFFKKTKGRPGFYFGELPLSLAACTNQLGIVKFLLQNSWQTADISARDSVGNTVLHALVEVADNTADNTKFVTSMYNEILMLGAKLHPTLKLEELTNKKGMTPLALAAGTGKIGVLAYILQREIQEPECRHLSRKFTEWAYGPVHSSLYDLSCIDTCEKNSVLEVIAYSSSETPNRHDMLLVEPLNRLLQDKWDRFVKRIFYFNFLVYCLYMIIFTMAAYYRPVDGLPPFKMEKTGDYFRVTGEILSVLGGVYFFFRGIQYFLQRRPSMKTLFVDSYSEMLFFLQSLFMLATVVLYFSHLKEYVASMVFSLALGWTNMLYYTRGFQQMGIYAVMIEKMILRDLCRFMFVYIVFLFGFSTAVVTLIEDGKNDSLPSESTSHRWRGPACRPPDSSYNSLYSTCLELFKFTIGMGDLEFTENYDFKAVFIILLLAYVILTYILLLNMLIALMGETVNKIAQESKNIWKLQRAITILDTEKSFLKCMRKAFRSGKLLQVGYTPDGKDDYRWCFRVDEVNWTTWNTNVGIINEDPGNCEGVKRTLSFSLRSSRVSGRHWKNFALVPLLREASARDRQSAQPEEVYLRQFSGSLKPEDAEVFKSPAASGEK
# Screen size: about 320,000 compounds; about 620 (0.19%) were called active. Inconclusive means that the source gave no clear call. Such entries were picked first, then a sample of the others. Cut-off read from the data, not from the text of the source: active = activation above about 80%; inconclusive = between about 30% and that limit; inactive = weaker than that.
# Target: Transient receptor potential cation channel subfamily V member 1 (Homo sapiens) (UniProt Q8NER1)
# Assay: HTS Assay for Compounds that Act as Agonists of the Vanilloid Receptor 1; note: 0% is about no effect
# Conditions: TRPV1-expressing cells, Fluo-8 calcium influx, agonist mode; at 8.33 µM, stronger effect = higher value
# Outline: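 TRPV1-expressing cells were cultured overnight at 35.5C and loaded with Fluo-8 calcium dye for 40 to 90 min at room temperature. After a 10 s baseline, compound was added and calcium influx was read kinetically for 3 min (ex 480/em 520 nm).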
row,SMILES,activation
1,O=C(NC(=S)N1CCc2ccccc21)c1ccccc1,inactive: 1.78%
2,O=C(c1ccc(-c2cccc(C(F)(F)F)c2)o1)N1CCN(c2ccccc2O)CC1,inconclusive: 41.3%
3,O=C(C1=C[C@H](C2CCCCC2)C[C@H](OCc2ccc(CO)cc2)O1)N1CCN(Cc2ccc3c(c2)OCO3)CC1,inconclusive: 32.9%
4,COc1ccc(/C=N/Nc2ccccn2)cc1OC,inactive: -0.952%
5,CC(OC(=O)Cc1c[nH]c2ccccc12)C(=O)NC1CCCCC1C (centres undefined),inactive: 18.6%
6,CC1(C)Cc2c(ccc3ccccc23)C(c2cc3ccccc3oc2=O)=N1,inconclusive: 39.3%
7,CC1(c2ccccc2)CC(c2ccccc2)=Nc2nonc2N1 (centres undefined),inconclusive: 37.7%
8,C/C(=N\NC(=S)NC1CCCCC1)c1cccs1,inconclusive: 47.3%
9,Cc1ccc(N/N=C/c2ccncc2)cc1,inconclusive: 34.2%
10,O=C(Nc1ccc(F)cc1)c1ccc2ncsc2c1,active: 93.1%
11,COc1ccc(NC(=O)CN2CCN(c3nc(-c4ccc(F)cc4)cs3)CC2)c(OC)c1,inconclusive: 34.7%
12,CCC1CCCCN1Cc1nc2c(c(=O)n(C)c(=O)n2C)n1CCCc1ccccc1 (centres undefined),inconclusive: 33.2%
13,Cc1cc(/C=N/NC(N)=S)c(C)n1-c1cccc(Cl)c1,inactive: -2.65%
14,O=C1c2cccc3cccc(c23)C(=O)N1CCN1CCN(CC(O)COc2ccc3ccccc3c2)CC1 (centres undefined),inactive: -6.33%
15,CCOc1ccc2[nH]c(=O)c(CN(Cc3cccnc3)C(=O)Nc3ccccc3OC)cc2c1,inactive: -1.24%
16,Cc1ccc(C)c(OCc2cc(C(=O)N3C[C@@H](C)O[C@@H](C)C3)no2)c1,inconclusive: 30.2%
17,O=C(N/N=C/c1ccccc1)c1n[nH]c2c1CCCC2,active: 83.3%
18,Cn1cccc1CC(=O)N/N=C/c1ccc(C(C)(C)C)cc1,inconclusive: 34%
19,COc1c(Br)cc2c(C)c(C(=O)N3CCOCC3)oc2c1Br,inconclusive: 34.7%
20,Cc1ccc(-c2csc(NCCn3c(C(F)(F)F)nc4ccccc43)n2)cc1,inconclusive: 65.5%
21,COc1ccc(CN2C(=O)NC(C)(c3ccc(C)cc3)C2=O)cc1F (centres undefined),inconclusive: 36.7%
22,Cc1ccc(-n2c(C)cc(C(=O)COC(=O)C3=NNC(=O)CC3)c2C)cc1,inconclusive: 55.2%
23,CCN(CC)S(=O)(=O)c1ccc(O)c(NC(=O)c2cc(-c3cc(OC)c(OC)c(OC)c3)nc3ccccc23)c1,inconclusive: 72.6%

row,SMILES,activation
1,Cc1ccc(OCCCCN2CCc3ccccc3C2)c(C)c1,inactive: -2.8%
2,O=C(CSCc1ccccc1)N1CCN(S(=O)(=O)c2ccc(F)cc2)CC1,inconclusive: 49.6%
3,Cc1ccc(C)c(OCc2cc(C(=O)N(C)Cc3nccs3)no2)c1,inconclusive: 34.4%
4,C/C(=N\NC(=O)c1c(C)nc2ccccn12)c1ccc(O)cc1O,inactive: 2.63%
5,CCNc1nnc(-c2ccncc2)s1,inactive: -3.71%
6,Cc1ccc(-n2nnnc2-c2cnc(N3CCCC3)nc2C(F)(F)F)cc1,inactive: 0.364%
7,Cc1ccc(C(=O)Nc2ccc(Br)c(C(F)(F)F)c2)cc1,inconclusive: 69.4%
8,C=C(C)c1cccc(C(C)(C)NC(=O)Nc2ccc(C(C)=O)cc2)c1,inconclusive: 65.3%
9,CC(NC(=O)Cc1ccc(F)cc1)c1ccc(F)cc1 (centres undefined),inconclusive: 39.8%
10,Cc1nn(-c2cc(C(F)(F)F)ccc2Cl)c2nc(C(Cl)(Cl)Cl)[nH]c(=O)c12,inactive: -2.87%
11,FC(F)(F)c1cnc(N2CCN(C(=S)NCc3ccccc3)CC2)c(Cl)c1,inconclusive: 45.1%
12,O=C(Nc1nc2c(F)cc(F)cc2s1)c1ccc([N+](=O)[O-])o1,inconclusive: 38.6%
13,CCOP(=O)(c1ccccc1)c1nc(-c2ccccc2Cl)oc1N1CCCCC1 (centres undefined),inconclusive: 71%
14,CCOc1cccc(NC(=O)C2CC(=O)N(C)C(=Nc3cccc(F)c3)S2)c1 (centres undefined),inconclusive: 30.5%
15,COc1ccc(Oc2coc3cc(OC(=O)c4cccs4)ccc3c2=O)cc1,inconclusive: 48.6%
16,Cc1noc(C)c1C(=O)OCC(=O)Nc1ccccc1Oc1ccccc1,inconclusive: 31.9%
17,COc1ccc(NC(=O)CSC2=NCCN2)cc1,inactive: 2.77%
18,Cc1ccc(NC(=O)N(Cc2ccco2)C(C)c2ccco2)cc1C (centres undefined),inconclusive: 35.2%
19,CCCc1cc2c(c(NC(C)=O)n1)c(=O)oc1ccccc12,inactive: 2.04%
20,CCCCCCC1CC(CSc2ncn[nH]2)OC1=O (centres undefined),inconclusive: 52.5%
21,COc1ccc(-c2csc(NS(=O)(=O)c3ccc([N+](=O)[O-])cc3)n2)cc1,inactive: -0.95%
22,Cc1ccc(C)c(OCCCC(=O)NC2CCCCC2)c1,inconclusive: 37.4%
23,O=C(NCC1CCN(c2ccc(S(=O)(=O)N3CCOCC3)cc2)CC1)Nc1ccccc1F,inactive: 1.81%

# Single values from the entries so far.
# CC1(C)Cc2c(ccc3ccccc23)C(c2cc3ccccc3oc2=O)=N1 | activation: inconclusive: 39.3%
# FC(F)(F)c1cnc(N2CCN(C(=S)NCc3ccccc3)CC2)c(Cl)c1 | activation: inconclusive: 45.1%
# CC(NC(=O)Cc1ccc(F)cc1)c1ccc(F)cc1 (centres undefined) | activation: inconclusive: 39.8%
# CCOc1ccc2[nH]c(=O)c(CN(Cc3cccnc3)C(=O)Nc3ccccc3OC)cc2c1 | activation: inactive: -1.24%
# CC(OC(=O)Cc1c[nH]c2ccccc12)C(=O)NC1CCCCC1C (centres undefined) | activation: inactive: 18.6%
# C/C(=N\NC(=O)c1c(C)nc2ccccn12)c1ccc(O)cc1O | activation: inactive: 2.63%

# The results go on.

row,SMILES,activation
1,COc1ccc(C(=O)CC(=O)C(=O)Nc2ccc(C)c(Cl)c2)cc1,inconclusive: 30.5%
2,Cn1nnnc1Sc1ncnc2scc(-c3ccccc3C(F)(F)F)c12,inconclusive: 41.8%
3,Cc1ccc(Sc2cc(C(=O)NCCN(C)C)c3ccccc3n2)cc1,inactive: 0.072%
4,CC1=NN(c2ccc(C(=O)OC(C)C)cc2)C(=O)/C1=C\C=C\c1ccco1,inactive: -1.21%
5,O=C1C(Cl)=C(NC2CCCCC2)C(=O)N1Cc1ccccc1,inconclusive: 74%
6,Cc1cc(C)c(NC(=O)C2CCCN2CCOC(=O)c2ccccc2)c(C)c1 (centres undefined),inconclusive: 42%
7,O=C(COC(=O)C12CC3CC(CC(C3)C1)C2)NCc1ccco1,inconclusive: 36.2%
8,COc1cccc(OC)c1C(=O)NC(=S)Nc1ccc2c(c1)OCCO2,inactive: 0.102%
9,c1ccc(-c2nnc(N3CCOCC3)nc2-c2ccccc2)cc1,inconclusive: 70.3%
10,COc1ccc(C[C@H]2CN3C(=NC[C@@H]3Cc3ccc(O)cc3)N2C[C@H](C)NC(=O)c2ccc(C)c(Br)c2)cc1,inactive: -0.494%
11,CCN(CCNS(=O)(=O)c1ccc2[nH]c(=O)sc2c1)c1ccccc1,inconclusive: 32.4%
12,CC(C)CCCNc1nc(N2CCOCC2)nc(N2CCOCC2)n1,inconclusive: 32.5%
13,CCNc1oc(-c2cccc3ccccc23)nc1C#N,inconclusive: 41.5%
14,CCOc1ccc(CN(C)CC(O)COC(c2ccc(OC)cc2)c2ccc(OC)cc2)cc1 (centres undefined),inactive: -0.91%
15,CC(C)CC(OC(=O)c1nsc(Cl)c1Cl)C(=O)NC1CCCC1 (centres undefined),inconclusive: 55%
16,Cc1ccc(S(=O)(=O)N(CC(=O)NCc2ccc(F)cc2)C(=O)N2CCN(C)CC2)cc1,inactive: -0.959%
17,C/C=C/C=C/C(=O)[C@@H]1[C@@H]([C@]2(C)OC(=O)C(C)=C2O)[C@H]2/C(=C(O)/C=C/C=C/C)C(=O)[C@]1(C)C(=O)C2(C)O (some centres undefined),inactive: -3.39%
18,Cc1c(C(=O)N2CCN(CCc3ccccn3)CC2)oc2ccc(Cl)cc12,inactive: 15.5%
19,Cc1ccc(/C=C(\NC(=O)c2ccccc2)C(=O)OCc2ccccc2)cc1,inconclusive: 62%
20,Cc1ccc(S(=O)(=O)/N=C(/c2ccc(F)cc2)N2CCCCC2)cc1,inactive: 0.765%
21,O=C(NCc1ccc(F)cc1F)Nc1cnccc1C(F)(F)F,inconclusive: 41.5%
22,CCc1cccc(OCC(=O)Nc2cc(Cl)ccc2-n2cncn2)c1,inconclusive: 45.4%
23,CCc1ccc(CN2CCCC(C(=O)N3CCCCC3)C2)cc1 (centres undefined),inactive: 26.5%

row,SMILES,activation
1,CC(C)(C)C1CCC(C(=O)OCC(=O)N2CCOCC2)CC1 (centres undefined),inconclusive: 69.8%
2,CC(NC(=O)COC(=O)c1ccc(Cl)cc1O)c1ccc(F)cc1 (centres undefined),active: 96.5%
3,O=C(Nc1ccccc1-c1nc2ccccc2s1)c1ccco1,inactive: 20.4%
4,CCCCN1C(=O)/C(=C2\SC(N3CCCCC3)=NC2=O)c2ccccc21,inconclusive: 49.5%
5,O=[N+]([O-])c1ccccc1/C=C/C=N/n1c(-c2ccc(Cl)cc2)n[nH]c1=S,inactive: 7.91%
6,COc1ccccc1N1CCN(C(=O)CCNC(=O)c2ccco2)CC1,inactive: 2.44%
7,FC(F)(F)c1cccc(NC(=S)NCc2ccccc2)c1,inconclusive: 50.9%
8,O=C(NCCc1ccccc1)c1ccc(-c2ccccc2Cl)o1,inconclusive: 45.4%
9,O=C(c1cccn2c(=O)c3ccccc3nc12)N1CCN(Cc2ccc3c(c2)OCO3)CC1,inactive: 2.44%
10,COC(=O)C1=CN(C(C)c2ccccc2)C=C(C(=O)OC)C1c1cc(OC)c(OC)c(OC)c1 (centres undefined),inactive: -6.94%
11,Cc1nc(N2CCOCC2)c2c(C)c(C(=O)Nc3ccc(F)cc3F)sc2n1,inconclusive: 55%
12,COc1ccc(C(=O)CCC(=O)N2CCN(c3ccccc3)CC2)cc1,inconclusive: 39.8%
13,CC(C)NC(=S)NC(=O)/C=C/c1ccc(F)cc1,inconclusive: 34.2%
14,CCn1cc(C(=O)NC2CC(C)(C)Cc3c2cnn3-c2cccc(F)c2)cn1 (centres undefined),inconclusive: 42.3%
15,CCCOP(=O)(OCCC)C(Nc1cccc(C(F)(F)F)c1)c1ccc(C)cc1 (centres undefined),inconclusive: 52.6%
16,CCCNC(=O)OCCC12CC3CC(CC(C3)C1)C2,inconclusive: 55%
17,COc1cc(/C=N/NC(=O)c2ccc3c(c2)OCCO3)cc(Br)c1O,inconclusive: 59.2%
18,O=C(NCc1ccc(Cl)cc1)c1ccc(N2CCCC2=O)cc1,inactive: 26.5%
19,S=C(NCc1cccnc1)Nc1cc(Cl)cc(Cl)c1,inconclusive: 37.1%
20,CCN1CCCC1CN(Cc1cc2ccc(C)cc2[nH]c1=O)C(=S)Nc1ccc(F)cc1 (centres undefined),inactive: 3.58%
